Reference: paper doi:10.1101/2025.02.28.640929
These are yes or no findings as the source states them, for the method shown. Binding seen in cells or lysates may run through a third protein. Some results given as binding are weak or reduced against the parent protein; the word gives no strength.

The chains behind the UniProt entries cited, without tags or fusion partners.
UniProt O60573: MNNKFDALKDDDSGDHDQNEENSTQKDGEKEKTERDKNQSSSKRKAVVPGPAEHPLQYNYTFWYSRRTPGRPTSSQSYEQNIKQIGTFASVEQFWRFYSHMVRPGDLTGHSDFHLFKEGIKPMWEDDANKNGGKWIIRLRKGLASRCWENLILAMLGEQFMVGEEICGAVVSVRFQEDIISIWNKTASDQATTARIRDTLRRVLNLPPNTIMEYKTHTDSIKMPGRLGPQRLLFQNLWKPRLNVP

T1: GRB10-interacting GYF protein 2 (GIGYF2), human, endogenous (human (endogenous in HEK293T)) (UniProt Q6Y7W6)
T1 sequence: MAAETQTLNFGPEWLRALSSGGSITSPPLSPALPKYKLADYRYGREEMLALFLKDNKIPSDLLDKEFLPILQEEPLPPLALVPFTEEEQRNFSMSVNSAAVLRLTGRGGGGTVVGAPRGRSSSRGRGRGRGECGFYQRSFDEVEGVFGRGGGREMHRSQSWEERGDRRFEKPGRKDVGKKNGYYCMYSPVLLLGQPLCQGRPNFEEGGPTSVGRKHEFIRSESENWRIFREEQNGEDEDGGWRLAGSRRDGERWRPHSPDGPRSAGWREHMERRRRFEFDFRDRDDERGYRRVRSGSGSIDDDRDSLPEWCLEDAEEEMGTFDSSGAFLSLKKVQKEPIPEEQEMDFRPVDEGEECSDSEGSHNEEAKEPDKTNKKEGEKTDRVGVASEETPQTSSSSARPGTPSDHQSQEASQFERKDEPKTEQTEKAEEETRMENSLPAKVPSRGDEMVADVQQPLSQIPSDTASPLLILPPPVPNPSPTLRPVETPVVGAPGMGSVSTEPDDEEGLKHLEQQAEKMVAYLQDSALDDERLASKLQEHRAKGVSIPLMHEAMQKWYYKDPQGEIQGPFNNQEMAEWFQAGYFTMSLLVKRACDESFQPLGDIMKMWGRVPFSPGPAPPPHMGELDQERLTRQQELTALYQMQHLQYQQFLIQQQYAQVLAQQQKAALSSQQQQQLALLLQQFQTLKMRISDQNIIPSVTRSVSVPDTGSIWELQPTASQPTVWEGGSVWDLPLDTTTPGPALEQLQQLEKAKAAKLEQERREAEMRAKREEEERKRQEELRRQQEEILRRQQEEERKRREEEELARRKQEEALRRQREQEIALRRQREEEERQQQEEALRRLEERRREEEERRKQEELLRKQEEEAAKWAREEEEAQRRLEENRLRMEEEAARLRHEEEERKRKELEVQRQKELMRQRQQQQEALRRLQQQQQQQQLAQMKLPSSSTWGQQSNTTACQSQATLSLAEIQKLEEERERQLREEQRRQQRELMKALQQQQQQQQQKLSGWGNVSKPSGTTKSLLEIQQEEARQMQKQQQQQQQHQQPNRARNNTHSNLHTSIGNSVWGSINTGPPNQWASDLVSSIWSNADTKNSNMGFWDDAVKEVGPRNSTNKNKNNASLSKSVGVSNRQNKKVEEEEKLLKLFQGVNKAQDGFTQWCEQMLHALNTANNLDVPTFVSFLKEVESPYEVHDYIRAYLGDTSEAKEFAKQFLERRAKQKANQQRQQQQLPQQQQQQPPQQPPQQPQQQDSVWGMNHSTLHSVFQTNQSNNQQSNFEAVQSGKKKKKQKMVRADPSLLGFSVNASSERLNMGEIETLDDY


Target: T1, GRB10-interacting GYF protein 2 (GIGYF2), human, endogenous (human (endogenous in HEK293T))
Experiment: co-IP

binding | Molecule
binds | 4EHP (eIF4E homologous protein, eIF4E2), endogenous (from UniProt O60573 1-245)
binds | Zinc-finger protein 598 (ZNF598), endogenous (protein, UniProt Q86UK7 1-904) MAAAGGAEGRRAALEAAAAAAPERGGGSCVLCCGDLEATALGRCDHPVCYRCSTKMRVLCEQRYCAVCREELRQVVFGKKLPAFATIPIHQLQHEKKYDIYFADGKVYALYRQLLQHECPRCPELPPFSLFGDLEQHMRRQHELFCCRLCLQHLQIFTYERKWYSRKDLARHRMQGDPDDTSHRGHPLCKFCDERYLDNDELLKHLRRDHYFCHFCDSDGAQDYYSDYAYLREHFREKHFLCEEGRCSTEQFTHAFRTEIDLKAHRTACHSRSRAEARQNRHIDLQFSYAPRHSRRNEGVVGGEDYEEVDRYSRQGRVARAGTRGAQQSRRGSWRYKREEEDREVAAAVRASVAAQQQEEARRSEDQEEGGRPKKEEAAARGPEDPRGPRRSPRTQGEGPGPKETSTNGPVSQEAFSVTGPAAPGCVGVPGALPPPSPKLKDEDFPSLSASTSSSCSTAATPGPVGLALPYAIPARGRSAFQEEDFPALVSSVPKPGTAPTSLVSAWNSSSSSKKVAQPPLSAQATGSGQPTRKAGKGSRGGRKGGPPFTQEEEEDGGPALQELLSTRPTGSVSSTLGLASIQPSKVGKKKKVGSEKPGTTLPQPPPATCPPGALQAPEAPASRAEGPVAVVVNGHTEGPAPARSAPKEPPGLPRPLGSFPCPTPQEDFPALGGPCPPRMPPPPGFSAVVLLKGTPPPPPPGLVPPISKPPPGFSGLLPSPHPACVPSPATTTTTKAPRLLPAPRAYLVPENFRERNLQLIQSIRDFLQSDEARFSEFKSHSGEFRQGLISAAQYYKSCRDLLGENFQKVFNELLVLLPDTAKQQELLSAHTDFCNREKPLSTKSKKNKKSAWQATTQQAGLDCRVCPTCQQVLAHGDASSHQALHAARDDDFPSLQAIARIIT
